{"source": "PubChem BioAssay AID1508600", "about": "(Functional Genomics Laboratory (NCATS/FGL), 2020)", "note": "Hit rate of the full screen: of about 53,000 sequences, about 3,700 (7%) were called active.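 The calls were made as follows: active = gene knockdowns whose robust z-score for IL-1 alpha signal is at least 2 or at most -2, so actives lie on both sides; inactive = the rest.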 The list shows a part of the results."}
{"test": "Components of the Cytosolic LPS Sensing Pathway: Gene Identification via Genome-wide siRNA Screen;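 also: robust z of the log signal after scaling to non-targeting control siRNA wells of the plate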", "details": "RAW264.7 macrophages, IL-1a HTRF, actives lie on both sides, screened at 100 nM (by protocol), cells primed 5 h with Pam3CSK4 first", "summary_of_the_method": "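RAW264.7; siRNA 100 nM final, RNAiMAX, 48h 37 degrees C; Pam3CSK4 5 h; LipidA + TransIT-TKO 24 h; IL-1a HTRF; CellTiter-Glo viability; robust z vs negative-control median.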"}
{"sequence": "GGAGUGUUCUAGGACUAAGTT against D630003M21Rik", "z-score": "inactive: 1.27"}
{"sequence": "GGAGAUAACACCGUUACUUTT against Olfr769", "z-score": "inactive: 0.766"}
{"sequence": "GGUUCAAGAACUUAAGACATT against Cenpe", "z-score": "inactive: 0.589"}
{"sequence": "GGCAUGGAAGGCUAAACAGTT against Slc25a17", "z-score": "inactive: -1.98"}
{"sequence": "GGUGUCCACUUAAUUCUGATT against Mmp19", "z-score": "inactive: 0.993"}
{"sequence": "GGGUUGCUACAAUCAUUGUTT against Scara3", "z-score": "inactive: 0.387"}
{"sequence": "CCCAUCUCACUAUUUAAUATT against Lrrc3b", "z-score": "inactive: -1.23"}
{"sequence": "GCUACAAAGAGUAAAACUGTT against Zfp251", "z-score": "inactive: 1.01"}
{"sequence": "GGAACUCAUUAUGAUCUCCTT against Sac3d1", "z-score": "inactive: 0.785"}
{"sequence": "GGCAAUGACGAAAUAACCCTT against Il10rb", "z-score": "inactive: -0.292"}
{"sequence": "GGUAGCAGUGAUAGACACATT against Zfyve1", "z-score": "inactive: -0.187"}
{"sequence": "CCGCUUACAUCGACUUUGCTT against Tpi1", "z-score": "inactive: -0.351"}
{"sequence": "GCUACCAAAUUCUUUCAGUTT against Prpf8", "z-score": "inactive: 0.518"}
{"sequence": "GUUCUUUUUCUUCGGUUCCTT against Olfr1020", "z-score": "inactive: 0.769"}
{"sequence": "GGCAAAGUUUAUGAAAUCCTT against Lipg", "z-score": "inactive: -0.517"}
{"sequence": "GGGUUAAGGAACUUUAUGUTT against Cnnm4", "z-score": "inactive: -1.05"}
{"sequence": "GCCUGAAUCACAUGACUUCTT against Irgm2", "z-score": "inactive: -1.14"}
{"sequence": "GGAGAUUGUGACUGCUUUATT against Sarm1", "z-score": "inactive: 1.54"}
{"sequence": "GGAGGAGCUGAAUGAAAACTT against Taok1", "z-score": "inactive: 0.359"}
{"sequence": "CCUUAUCCAGUCACUUUGGTT against Gabra5", "z-score": "inactive: -0.47"}
{"sequence": "GGUACAGGUUCCUGUGAAUTT against H2ap", "z-score": "inactive: 1.34"}
{"sequence": "GCAAUAGUAUGGUAAGUUATT against Dennd4a", "z-score": "inactive: -0.288"}
{"sequence": "GGGCAAACCCAAGACCUUATT against Sgms2", "z-score": "inactive: -0.0749"}
{"sequence": "GGAAAAUGGAGCUGUGCUCTT against Prelid3a", "z-score": "inactive: 0.298"}
{"sequence": "GCCACUUCCGGUCAACUAUTT against Cog1", "z-score": "inactive: 0.801"}
{"sequence": "GCGGUAUGGCAUGGUACAUTT against LTO1", "z-score": "inactive: -0.855"}
{"sequence": "CGAUUUGAACACUGAUCAATT against Bub3", "z-score": "inactive: -0.787"}
{"sequence": "CCUUUGCCUAUGUUUACCATT against Ropn1l", "z-score": "inactive: 0.851"}
{"sequence": "GGGAUAUGGAAAACUAUGATT against Ssmem1", "z-score": "inactive: -1.43"}
{"sequence": "GGCAGCAUUUGUUCUUUUATT against Ikzf1", "z-score": "inactive: -1"}
{"sequence": "GGGAACACCUACCCUGUGUTT against Prl8a1", "z-score": "inactive: -0.0181"}
{"sequence": "GCGAUAUGACAGACUCUUCTT against Csrnp1", "z-score": "inactive: 1.79"}
{"sequence": "GGCCUAGACUGGUGCAAUGTT against Hapln3", "z-score": "inactive: -0.0286"}
{"sequence": "GGUGGUCCAGGGAAGUAGATT against Gucy2e", "z-score": "inactive: -0.834"}
{"sequence": "CCUCUAUGUGAGAUUUGAGTT against Mamdc2", "z-score": "inactive: -0.917"}
{"sequence": "GCCAAAAGUCGAGCACCUCTT against Lrrc8d", "z-score": "inactive: 0.43"}
{"sequence": "GCACGGUGAGAUCAUCAAATT against Ap3b2", "z-score": "inactive: 1.4"}
{"sequence": "GGCUGAAUCGAAGAGACGGTT against Cntnap4", "z-score": "inactive: -1.21"}
{"sequence": "GGAGAGUGUGUUUUCAGGCTT against Bop1", "z-score": "active: 3.08"}
{"sequence": "GGGUGUCAAUUUACUUUUUTT against Slc16a2", "z-score": "inactive: 0.658"}
{"sequence": "GGCCUGCGUCAACUUUCUGTT against Btbd6", "z-score": "inactive: -0.563"}
{"sequence": "GGACAAUGGUUCACUUUUATT against Gmpr", "z-score": "inactive: -0.823"}
{"sequence": "GGAUGUCAUCAAUGCUAUGTT against Olfr1022", "z-score": "inactive: -0.643"}
{"sequence": "GGAUGCUUUCAAACAUAUGTT against Olfr812", "z-score": "inactive: 0.535"}
{"sequence": "GGACCAGUUACUUUAACAUTT against Pkdrej", "z-score": "inactive: 0.555"}
{"sequence": "GGAGUUUCAGAUGUUGAAATT against Cpne2", "z-score": "inactive: -0.209"}
{"sequence": "GCUAUACGCGAAAUUUGGCTT against Pfdn4", "z-score": "inactive: -0.366"}
{"sequence": "CCAUUUCAGGUUCAAUCGGTT against B4galt7", "z-score": "inactive: 0.639"}
{"sequence": "GCCUAUGAGUAUCGAAUGUTT against Trim21", "z-score": "inactive: 0.659"}
{"sequence": "CCAAGUAUUUCACAAACCGTT against Slc29a1", "z-score": "inactive: 1.49"}
{"sequence": "GCUUAUGACCCUAAGCACUTT against Tpte", "z-score": "inactive: 0.236"}
{"sequence": "GGAUUAUGUAGAGGCCCAATT against Gngt2", "z-score": "active: -2.63"}
{"sequence": "GCCGGAUGACCUACCAUUUTT against Apoh", "z-score": "inactive: -0.602"}
{"sequence": "CCCAGUUCACAUUAAAACATT against Sec62", "z-score": "inactive: -0.355"}
{"sequence": "GGGAGCUCUCUACGAGAUUTT against Tmc8", "z-score": "inactive: 1.1"}
{"sequence": "GCUACUCCUUAAUUGGCAATT against Wscd2", "z-score": "inactive: -0.813"}
{"sequence": "GGCACUUUGUGGCAAAUCUTT against Pcdhb1", "z-score": "inactive: 0.742"}
{"sequence": "GGGAUGCUAACAGGUGUCATT against Tkfc", "z-score": "inactive: -0.12"}
{"sequence": "GGCGAGUGCUGAAUCUUUGTT against Pcdhb20", "z-score": "inactive: -0.71"}
{"sequence": "GGAAGAGAAGUUGUCCAAATT against Creld1", "z-score": "inactive: 0.477"}
{"sequence": "GGUUACCAGAAAAUAACUATT against E130114P18Rik", "z-score": "inactive: 0.852"}
{"sequence": "GCAAAUGUGGGACAGUAAGTT against Wdfy2", "z-score": "inactive: 0.218"}
{"sequence": "GGAGAAACAACAGUUUCAGTT against Maml1", "z-score": "inactive: 0.177"}
{"sequence": "CCAGCCCAUACCCAUUACCTT against Olfr3", "z-score": "inactive: 1.05"}
{"sequence": "GCUAUAAAUUCAGCAUUGGTT against Gtf2a2", "z-score": "inactive: -0.388"}
{"sequence": "GGCCACUUGCCUAUUGUGATT against Anxa6", "z-score": "inactive: -0.343"}
{"sequence": "CCUAAUUGUAGUAGUACUATT against Olfr117", "z-score": "inactive: -0.955"}
{"sequence": "GACACUCAGACGGAAUGUUTT against Sct", "z-score": "inactive: -0.521"}
{"sequence": "CCUUUCCUACUCUGUACCCTT against Abcg1", "z-score": "active: 2.22"}
{"sequence": "CCCGCCAGAUGAUGCAUAATT against Unc5cl", "z-score": "inactive: -0.254"}
{"sequence": "GAUGUUCUGCAUCUACUUUTT against Olfr545", "z-score": "inactive: 1.46"}
{"sequence": "GCCUCAUACCUUGUUACUATT against Ap5b1", "z-score": "inactive: -1.2"}
{"sequence": "GCCACUAUUACUCUGAUACTT against Naip3", "z-score": "inactive: -0.028"}
{"sequence": "CCCUAAUUCAUGGACCUUGTT against Kremen2", "z-score": "inactive: -0.534"}
{"sequence": "GCCAAGGACUCAGUGAAUGTT against Iqsec2", "z-score": "inactive: -1.19"}
{"sequence": "GGAGCUAGAACUCAAUGAATT against Lingo1", "z-score": "inactive: 0.65"}
{"sequence": "GGUUUUGGAAAAAGUGGAUTT against Chp1", "z-score": "inactive: -0.867"}
{"sequence": "GGAAAUUGUGAGAAGAACUTT against Slx4ip", "z-score": "active: 2.33"}
{"sequence": "CCCAUCUGUUUGAGUGUAUTT against Ms4a1", "z-score": "inactive: -0.305"}
{"sequence": "GGUGAACCUCCAGAACAAUTT against Bcap31", "z-score": "inactive: 1.58"}
{"sequence": "CCUUUCAAUUGGCUCUGAATT against Sumo1", "z-score": "inactive: 0.506"}
{"sequence": "GGUAGCUGACAAAGAGUAATT against Sp5", "z-score": "inactive: 0.682"}
{"sequence": "GCCUACAGAGUGAUCAACATT against Fxyd5", "z-score": "inactive: -0.318"}
{"sequence": "GGAGAAAGCACUCUAUCUCTT against Abcc10", "z-score": "inactive: -0.0656"}
{"sequence": "GGAUUUAGCCAAAGAAAAGTT against Tbc1d8", "z-score": "inactive: -1.77"}
{"sequence": "GGAUGGACCGCAUUGAAAATT against Rilpl1", "z-score": "inactive: -0.663"}
{"sequence": "GGACUUUGAGAAUGUGGAUTT against Xylt1", "z-score": "inactive: 0.367"}
{"sequence": "GGUCUGACCAUGAUCAUAATT against Tmem251", "z-score": "inactive: -1.76"}
{"sequence": "GGCAGAUUCCAGGCUUCACTT against Olfr513", "z-score": "inactive: 0.231"}
{"sequence": "GCCGGACUUCCCAUCUGUUTT against Srebf1", "z-score": "inactive: -0.784"}
{"sequence": "CCGUCGUCCUAGAAAAACCTT against Nsun7", "z-score": "inactive: -1.18"}
{"sequence": "GGAAAGUACACAAAUGAACTT against Chil4", "z-score": "inactive: -0.278"}
{"sequence": "GCAUCCUGAGCAGUGAUAUTT against Taar7b", "z-score": "inactive: -1.75"}
{"sequence": "GGAUUGUAGUCGUUUCUUCTT against Rdh14", "z-score": "inactive: -0.357"}
{"sequence": "GGACAUGAAUGCAUUUUUATT against Klhl8", "z-score": "inactive: 0.39"}
{"sequence": "GGUUCAGUUGAUGCUUUAUTT against Lrba", "z-score": "inactive: 0.407"}
{"sequence": "GGAGCUGAACUAUUGUCAUTT against Ccdc186", "z-score": "inactive: 0.979"}
{"sequence": "CGAAGUGAGGCAAAUCGAATT against Stx18", "z-score": "inactive: 0.835"}
{"sequence": "GGCGAGAUUAAAAAAUGGUTT against Zhx1", "z-score": "inactive: 0.114"}
{"sequence": "GCAAAUUACCACAUUGUCUTT against Adam12", "z-score": "inactive: 0.606"}
{"sequence": "GGCUUACCUGAGGAAUGCUTT against Dhrs7b", "z-score": "inactive: 0.25"}
{"sequence": "GGAUCAGGAGGCCAUCACATT against 4933421I07Rik", "z-score": "inactive: -1.92"}
{"sequence": "CGAAGUGAAGAUUUACAGCTT against Nol10", "z-score": "inactive: -0.106"}
{"sequence": "CGGCAACAAAUUCUACUCUTT against Ambp", "z-score": "inactive: -0.631"}
{"sequence": "GGACAUAUAGCUGAUUUCUTT against Ctdsp2", "z-score": "inactive: 1.97"}
{"sequence": "GGUCACAGACCAAGCUUAUTT against Mmp15", "z-score": "inactive: -0.0289"}
{"sequence": "GCCCUCGAGAAGCUCUCAUTT against Zfp202", "z-score": "inactive: -1.58"}
